# Measurements reported in article doi:10.1101/2023.10.13.562211.
# Amino acid sequences for entries named in this document (tags omitted). A change or cut given only in a name is not applied to a line headed by its entry.
# UniProt Q941L0: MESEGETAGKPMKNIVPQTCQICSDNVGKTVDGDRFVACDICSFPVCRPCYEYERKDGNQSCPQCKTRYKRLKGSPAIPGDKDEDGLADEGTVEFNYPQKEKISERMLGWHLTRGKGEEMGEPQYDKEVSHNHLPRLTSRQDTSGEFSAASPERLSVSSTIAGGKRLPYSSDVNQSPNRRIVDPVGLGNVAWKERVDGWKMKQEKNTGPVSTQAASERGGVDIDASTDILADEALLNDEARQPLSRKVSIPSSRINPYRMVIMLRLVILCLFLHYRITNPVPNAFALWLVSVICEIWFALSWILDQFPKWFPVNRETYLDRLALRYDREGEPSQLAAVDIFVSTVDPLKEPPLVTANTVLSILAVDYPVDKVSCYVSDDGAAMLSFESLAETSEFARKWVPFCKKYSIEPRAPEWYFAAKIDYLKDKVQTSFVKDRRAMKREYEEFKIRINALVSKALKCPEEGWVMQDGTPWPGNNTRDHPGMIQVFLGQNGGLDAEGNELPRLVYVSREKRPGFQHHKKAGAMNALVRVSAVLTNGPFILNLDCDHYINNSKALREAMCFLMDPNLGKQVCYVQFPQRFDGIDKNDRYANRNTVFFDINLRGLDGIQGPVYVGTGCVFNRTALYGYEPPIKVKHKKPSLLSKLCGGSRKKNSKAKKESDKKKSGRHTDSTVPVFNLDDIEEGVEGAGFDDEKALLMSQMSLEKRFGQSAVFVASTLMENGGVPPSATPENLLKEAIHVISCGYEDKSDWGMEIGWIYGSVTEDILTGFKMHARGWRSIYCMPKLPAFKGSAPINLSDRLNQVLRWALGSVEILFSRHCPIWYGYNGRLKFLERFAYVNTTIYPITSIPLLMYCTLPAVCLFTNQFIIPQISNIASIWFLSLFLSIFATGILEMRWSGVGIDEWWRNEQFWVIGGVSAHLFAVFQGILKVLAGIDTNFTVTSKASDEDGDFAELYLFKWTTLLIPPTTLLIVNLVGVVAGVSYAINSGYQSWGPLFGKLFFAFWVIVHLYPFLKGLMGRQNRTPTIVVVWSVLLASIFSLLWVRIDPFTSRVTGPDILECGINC
# UniProt Q94JQ6: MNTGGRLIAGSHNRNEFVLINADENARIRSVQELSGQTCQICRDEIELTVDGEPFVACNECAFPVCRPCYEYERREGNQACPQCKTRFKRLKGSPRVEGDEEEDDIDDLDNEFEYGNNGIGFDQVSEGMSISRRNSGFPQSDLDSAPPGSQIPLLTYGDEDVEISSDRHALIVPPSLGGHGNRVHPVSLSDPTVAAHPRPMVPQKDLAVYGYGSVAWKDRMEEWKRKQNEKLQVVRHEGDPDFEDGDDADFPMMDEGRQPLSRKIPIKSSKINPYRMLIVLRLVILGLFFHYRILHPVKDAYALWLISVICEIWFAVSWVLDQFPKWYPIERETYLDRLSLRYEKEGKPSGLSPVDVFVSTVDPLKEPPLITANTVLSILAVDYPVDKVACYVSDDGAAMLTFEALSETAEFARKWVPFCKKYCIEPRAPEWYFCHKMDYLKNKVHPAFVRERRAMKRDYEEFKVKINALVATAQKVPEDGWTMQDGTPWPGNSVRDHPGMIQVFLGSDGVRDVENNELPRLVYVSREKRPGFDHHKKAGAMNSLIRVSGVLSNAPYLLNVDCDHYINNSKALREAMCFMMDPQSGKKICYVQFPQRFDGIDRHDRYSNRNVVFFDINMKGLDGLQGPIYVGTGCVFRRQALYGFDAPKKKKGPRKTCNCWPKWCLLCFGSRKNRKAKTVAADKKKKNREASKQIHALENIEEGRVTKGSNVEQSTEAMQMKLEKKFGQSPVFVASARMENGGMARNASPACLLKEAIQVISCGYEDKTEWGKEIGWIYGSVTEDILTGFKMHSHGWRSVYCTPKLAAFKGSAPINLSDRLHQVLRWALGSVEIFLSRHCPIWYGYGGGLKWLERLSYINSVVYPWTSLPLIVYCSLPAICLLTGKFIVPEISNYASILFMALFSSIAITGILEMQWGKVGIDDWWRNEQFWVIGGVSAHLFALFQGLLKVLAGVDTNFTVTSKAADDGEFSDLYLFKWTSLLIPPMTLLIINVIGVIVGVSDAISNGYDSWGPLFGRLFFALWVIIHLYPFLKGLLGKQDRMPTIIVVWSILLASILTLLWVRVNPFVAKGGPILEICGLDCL
# UniProt O48946: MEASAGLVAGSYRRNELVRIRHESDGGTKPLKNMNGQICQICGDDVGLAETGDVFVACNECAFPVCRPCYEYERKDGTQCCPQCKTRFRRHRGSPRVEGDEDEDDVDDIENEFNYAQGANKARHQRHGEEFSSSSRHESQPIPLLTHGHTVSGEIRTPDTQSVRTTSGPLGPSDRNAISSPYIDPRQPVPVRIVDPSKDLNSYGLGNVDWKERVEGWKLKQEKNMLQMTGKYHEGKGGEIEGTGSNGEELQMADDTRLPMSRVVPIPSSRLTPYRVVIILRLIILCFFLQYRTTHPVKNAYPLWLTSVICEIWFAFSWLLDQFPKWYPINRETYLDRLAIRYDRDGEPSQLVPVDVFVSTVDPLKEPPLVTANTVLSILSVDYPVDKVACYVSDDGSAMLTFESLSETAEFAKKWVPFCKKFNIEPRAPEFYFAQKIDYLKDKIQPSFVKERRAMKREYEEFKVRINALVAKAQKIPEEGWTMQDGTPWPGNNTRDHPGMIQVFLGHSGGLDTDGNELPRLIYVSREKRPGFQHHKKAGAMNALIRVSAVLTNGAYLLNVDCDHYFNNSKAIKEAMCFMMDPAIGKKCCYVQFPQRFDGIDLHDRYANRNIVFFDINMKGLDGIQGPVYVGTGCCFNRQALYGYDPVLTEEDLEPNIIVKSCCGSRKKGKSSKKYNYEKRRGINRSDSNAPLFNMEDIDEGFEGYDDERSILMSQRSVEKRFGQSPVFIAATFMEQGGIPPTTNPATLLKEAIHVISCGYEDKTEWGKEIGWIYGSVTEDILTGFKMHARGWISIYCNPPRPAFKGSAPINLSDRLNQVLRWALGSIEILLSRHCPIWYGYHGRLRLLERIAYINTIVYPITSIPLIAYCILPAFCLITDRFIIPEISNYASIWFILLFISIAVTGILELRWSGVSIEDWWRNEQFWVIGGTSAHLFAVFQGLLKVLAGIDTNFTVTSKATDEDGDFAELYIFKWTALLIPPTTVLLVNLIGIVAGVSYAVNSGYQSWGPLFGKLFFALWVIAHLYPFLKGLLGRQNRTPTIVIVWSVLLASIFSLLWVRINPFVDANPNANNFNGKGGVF
# UniProt Q8L778: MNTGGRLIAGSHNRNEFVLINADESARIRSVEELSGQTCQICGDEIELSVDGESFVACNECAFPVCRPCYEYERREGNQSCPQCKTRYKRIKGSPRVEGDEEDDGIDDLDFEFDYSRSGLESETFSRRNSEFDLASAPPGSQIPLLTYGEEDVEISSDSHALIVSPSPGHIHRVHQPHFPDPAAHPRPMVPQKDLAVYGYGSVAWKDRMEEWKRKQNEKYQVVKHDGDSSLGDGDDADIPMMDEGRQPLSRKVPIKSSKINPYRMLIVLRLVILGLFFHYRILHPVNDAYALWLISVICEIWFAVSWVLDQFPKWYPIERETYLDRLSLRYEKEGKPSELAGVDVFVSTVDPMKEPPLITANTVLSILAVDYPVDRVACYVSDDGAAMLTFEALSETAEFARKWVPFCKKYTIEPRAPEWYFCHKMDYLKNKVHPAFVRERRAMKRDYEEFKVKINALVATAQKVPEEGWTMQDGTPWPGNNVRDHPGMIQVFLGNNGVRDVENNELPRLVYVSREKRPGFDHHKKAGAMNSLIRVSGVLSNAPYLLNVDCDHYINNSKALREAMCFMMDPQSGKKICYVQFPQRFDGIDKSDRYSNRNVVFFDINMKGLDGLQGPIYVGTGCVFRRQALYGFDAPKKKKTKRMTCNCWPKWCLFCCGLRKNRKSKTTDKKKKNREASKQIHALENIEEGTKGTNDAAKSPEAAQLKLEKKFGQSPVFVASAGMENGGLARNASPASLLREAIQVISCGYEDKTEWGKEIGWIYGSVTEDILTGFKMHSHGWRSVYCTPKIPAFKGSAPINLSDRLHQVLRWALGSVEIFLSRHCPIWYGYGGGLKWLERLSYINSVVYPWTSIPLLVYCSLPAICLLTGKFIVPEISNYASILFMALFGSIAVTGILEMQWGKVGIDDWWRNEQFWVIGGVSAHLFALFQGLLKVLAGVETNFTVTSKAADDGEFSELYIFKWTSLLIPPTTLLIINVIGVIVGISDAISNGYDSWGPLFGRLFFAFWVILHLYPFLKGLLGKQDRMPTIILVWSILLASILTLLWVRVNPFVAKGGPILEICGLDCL
# These are yes or no findings as the source states them, for the method shown. In cells and extracts the contact can be indirect. Binding can be weak; no strength is given.
# Experiments:
# Assay in all cases: split reporter
# [1] = biological target: CESA3 N-terminal region (N to VR1) (Arabidopsis thaliana) (UniProt Q941L0)
# [2] = biological target: CESA6 N-terminal region (N to VR1) (Arabidopsis thaliana) (UniProt Q94JQ6)
# [3] = biological target: CESA1 N-terminal region (N to VR1) (Arabidopsis thaliana) (UniProt O48946)
substance,measurement,setting,value
CESA1 N-terminal region (N to VR1) (from UniProt O48946) (domain or fragment),binding,[1],binds
same,binding,[2],binds
CESA3 N-terminal region (N to VR1) (from UniProt Q941L0) (domain or fragment),binding,[2],binds
"CESA5 N-terminal region (N to VR1), wild type (from UniProt Q8L778) (domain or fragment)",binding,[3],binds
same,binding,[1],binds
same,binding,[2],binds
